Taken from: PubChem BioAssay AID652259 (Drosophila RNAi Screening Center, 2013)

Aim: 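Identify new Wingless signalling regulators in fly cells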 (primary screen)
System: Drosophila clone 8 imaginal disc epithelial cells
Knock-down reagent: long dsRNA against Drosophila genes
Conditions: pathway stimulated by co-transfected Wingless expression plasmid
Detection: 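Dual luciferase reads per well after Wingless plasmid stimulation: reporter firefly light and Renilla control light; activity is firefly divided by Renilla, a ratio not deposited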
Direction: firefly reporter light: higher = more Wg reporter light, before normalisation; Renilla control light: higher = more transfected or surviving cells
Hit rule: 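a knock-down is a candidate when at least two out of four statistical tests show it departing from its plate mean; one test alone signals a weak candidate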
Calls: active = candidate regulator (raises or lowers reporter); inactive = not a candidate
In all, the deposit lists about 22,000 reagents; below is a random part of those with a known target gene and a result. In the full data, 233 (1.1%) were called active. 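Light values are raw, unnormalised plate reads; the ratio scores behind the reporter calls were not deposited.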 Entries without a mark were called inactive. Reagents against one gene are numbered here. Names joined by + are all predicted targets of the reagent. Not given: the amount of reagent, the time to read-out, the dose of the treatment.

For CG32263, how do the results read?
firefly reporter light, replicate 1: 7.99e5; firefly reporter light, replicate 2: 8.93e5; Renilla control light, replicate 1: 4.69e5; Renilla control light, replicate 2: 1.80e5

For cact (cactus), what was measured?
firefly reporter light, replicate 1: 10471; Renilla control light, replicate 1: 3083

How did the screen score jumu (jumeau)?
firefly reporter light, replicate 1: 6992; Renilla control light, replicate 1: 1592

What is on record for CG15879?
firefly reporter light, replicate 1: 6854; Renilla control light, replicate 1: 3506

With Imp (IGF-II mRNA-binding protein) #1, what does the deposit list?
firefly reporter light, replicate 1: 3948; Renilla control light, replicate 1: 1334

Which result is listed for Imp (IGF-II mRNA-binding protein) #2?
firefly reporter light, replicate 1: 5970; Renilla control light, replicate 1: 1988

With Imp (IGF-II mRNA-binding protein) #3, how do the results read?
firefly reporter light, replicate 1: 3060; firefly reporter light, replicate 2: 5045; Renilla control light, replicate 1: 1149; Renilla control light, replicate 2: 2260

For Imp (IGF-II mRNA-binding protein) #4, what does the deposit list?
firefly reporter light, replicate 1: 5.31e5; firefly reporter light, replicate 2: 5.02e5; Renilla control light, replicate 1: 1.11e5; Renilla control light, replicate 2: 1.14e5

For CG17239, how do the results read?
firefly reporter light, replicate 1: 2576; firefly reporter light, replicate 2: 7216; Renilla control light, replicate 1: 875; Renilla control light, replicate 2: 2149

Quoted from above (2 entries):
Imp (IGF-II mRNA-binding protein) #3 → firefly reporter light, replicate 1 = 3060; firefly reporter light, replicate 2 = 5045; Renilla control light, replicate 1 = 1149; Renilla control light, replicate 2 = 2260
Imp (IGF-II mRNA-binding protein) #4 → firefly reporter light, replicate 1 = 5.31e5; firefly reporter light, replicate 2 = 5.02e5; Renilla control light, replicate 1 = 1.11e5; Renilla control light, replicate 2 = 1.14e5

The list goes on:
For Mlc-c (Myosin light chain cytoplasmic), how do the results read?
firefly reporter light, replicate 1: 2784; firefly reporter light, replicate 2: 6792; Renilla control light, replicate 1: 793; Renilla control light, replicate 2: 1866

With stnB + stnA #1, what does the deposit list?
firefly reporter light, replicate 1: 1788; Renilla control light, replicate 1: 1181

With stnB + stnA #2, what was measured?
firefly reporter light, replicate 1: 13926; Renilla control light, replicate 1: 7975

How did the screen score Su(P) (Suppressor of ref(2)P sterility)?
firefly reporter light, replicate 1: 7861; Renilla control light, replicate 1: 3133

What is on record for CG13511?
firefly reporter light, replicate 1: 2400; firefly reporter light, replicate 2: 7296; Renilla control light, replicate 1: 864; Renilla control light, replicate 2: 3181

Which result is listed for Sln (Silnoon)?
firefly reporter light, replicate 1: 8720; Renilla control light, replicate 1: 2283

With CG5262, what was measured?
firefly reporter light, replicate 1: 3904; Renilla control light, replicate 1: 1584

How did the screen score CG12493?
firefly reporter light, replicate 1: 1757; firefly reporter light, replicate 2: 10041; Renilla control light, replicate 1: 1344; Renilla control light, replicate 2: 3987
